Data published in paper PMC4552448 (Journal of medicinal chemistry, 2015).

Test system: MCF-7 human breast carcinoma cells
Assay: Growth inhibition of MCF-7 cells
Assay type: cell-based
Conditions: MCF7, 96 h, read-out: MCF-7 IC50 ± SD

COc1cc2c(c(OC)c1OC)-c1ccc(OC)c(=O)cc1[C@@H](NC(C)=O)CC2 [compound 1, Colchicine]
IC50: 5 ± 1 nM
